Patent US20250320401A1, “CORROSION INHIBITOR AND RELATED METHODS OF INHIBITING THE CORROSION OF METAL SURFACES” (Schlumberger Technology Corporation, priority 2024, published 2025)

Assay: Corrosion rate by weight loss analysis of steel coupons in inhibited hydrochloric acid
Conditions: HS80 low carbon steel, 80° C., one hour exposure, inhibitor 3.57 mmol; for CR, mm/year in 4M HCl: 100 ml 4M HCl; for CR, mm/year in 25% HCl: 100 ml 25% HCl
Source text: The corrosion rates were studied by weight loss analysis. The low carbon steel HS80 tubing were cut into coupons of 29±3 cm^2 surface area using a water cooled band saw to minimize any changes in the properties of the metal that may result from heating. After cutting, the coupons were stamped for identification, glass bead blasted and cleaned in acetone to remove any residue from the machining process. The coupons were then dried, placed in plastic bags and stored in airtight jars to prevent contact with humidity or airborne contaminants. The initial surface area of each test coupon was determined by accurate (to four decimal places) measurement of its geometric dimensions.
Throughout the exposure period, isothermal conditions are maintained (for the present study, the temperature was maintained at 80° C.) and the inhibited acid is continuously stirred using a magnetic stirrer bar. Since the tests were designed to simulate oil well acid stimulation, no effort was made to remove dissolved oxygen from the acid. However, an argon blanket was used to stop any additional intrusion of oxygen during the one hour exposure period. Following each test, the coupons were rinsed in acetone and scrubbed with soap and water to remove residual inhibitor and corrosion deposits. A final rinse in acetone and a brief drying period at ambient temperature was completed prior to re-weighing and calculation of weight loss and corrosion rate. The coupons were examined visually for localized corrosion, observed as pits or edge attack.

| Structure (SMILES) | CR, mm/year in 4M HCl [mm/year] | CR, mm/year in 25% HCl [mm/year] |
| --- | --- | --- |
| CCOC(CCO)OCC [3,3-diethoxy-1-propanol] | 56 ± 3 | 53 ± 3 |
| C#CCO [Propargyl alcohol, reference compound] | 13 ± 1 | 35 ± 2 |
| O=CCCO [3-HPA, 3-Hydroxypropionaldehyde] | 79 ± 4 | 69 ± 4 |
| C=CC=O [Acrolein, reference compound] | 37 ± 2 | 52 ± 3 |
